Assay results: article PMC12697862
Results are given in words; binding and its absence hold for the method and conditions named. For part of these data: Binding seen in cells or lysates may run through a third protein. Some entries that bind do so weakly or less than the wild type.

Amino acid sequences for entries named in this document (tags omitted). A change or cut given only in a name is not applied to a line headed by its entry. Chains listed by the source or under a name are the forms on record and can include a tag or linker. Residues count along the entry.
GRP75, endogenous in mouse liver (mouse (endogenous in liver)) (P38647, residues 47-679): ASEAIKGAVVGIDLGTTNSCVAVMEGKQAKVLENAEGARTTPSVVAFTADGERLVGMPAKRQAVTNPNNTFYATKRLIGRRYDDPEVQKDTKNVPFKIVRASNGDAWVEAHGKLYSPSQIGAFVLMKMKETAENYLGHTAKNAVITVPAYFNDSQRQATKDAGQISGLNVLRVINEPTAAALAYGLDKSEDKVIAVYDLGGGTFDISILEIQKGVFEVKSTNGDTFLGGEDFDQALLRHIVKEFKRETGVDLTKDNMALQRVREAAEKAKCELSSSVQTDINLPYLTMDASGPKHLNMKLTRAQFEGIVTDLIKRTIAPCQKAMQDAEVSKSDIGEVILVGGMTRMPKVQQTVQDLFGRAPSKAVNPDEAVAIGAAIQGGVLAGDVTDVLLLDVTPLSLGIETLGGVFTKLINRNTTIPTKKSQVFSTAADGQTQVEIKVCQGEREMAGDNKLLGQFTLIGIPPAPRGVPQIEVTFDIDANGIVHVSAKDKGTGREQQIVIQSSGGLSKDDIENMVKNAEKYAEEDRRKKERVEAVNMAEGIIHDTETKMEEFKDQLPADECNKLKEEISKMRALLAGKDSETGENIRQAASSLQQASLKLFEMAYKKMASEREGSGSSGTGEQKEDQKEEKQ
GRP75-2KQ, expressed in mouse liver (AAV-GRP75-2KQ) (P38647, form named): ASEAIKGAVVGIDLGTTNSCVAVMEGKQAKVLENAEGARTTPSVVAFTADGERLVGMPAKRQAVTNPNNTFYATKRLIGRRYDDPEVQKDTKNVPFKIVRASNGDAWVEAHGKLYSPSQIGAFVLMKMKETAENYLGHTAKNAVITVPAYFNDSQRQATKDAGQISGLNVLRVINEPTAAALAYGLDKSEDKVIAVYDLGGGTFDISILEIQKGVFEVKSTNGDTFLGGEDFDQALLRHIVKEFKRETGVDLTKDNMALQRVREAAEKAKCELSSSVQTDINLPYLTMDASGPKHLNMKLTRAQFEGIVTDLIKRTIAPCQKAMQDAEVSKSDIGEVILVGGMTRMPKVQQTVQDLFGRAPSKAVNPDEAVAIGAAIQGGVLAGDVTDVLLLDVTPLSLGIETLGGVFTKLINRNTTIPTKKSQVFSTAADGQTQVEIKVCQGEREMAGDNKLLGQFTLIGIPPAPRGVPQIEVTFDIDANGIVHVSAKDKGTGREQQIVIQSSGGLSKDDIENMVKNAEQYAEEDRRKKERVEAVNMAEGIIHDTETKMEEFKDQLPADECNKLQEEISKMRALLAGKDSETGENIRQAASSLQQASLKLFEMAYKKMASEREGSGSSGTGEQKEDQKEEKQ
GRP75-2KR, expressed in mouse liver (AAV-GRP75-2KR) (P38647, form named): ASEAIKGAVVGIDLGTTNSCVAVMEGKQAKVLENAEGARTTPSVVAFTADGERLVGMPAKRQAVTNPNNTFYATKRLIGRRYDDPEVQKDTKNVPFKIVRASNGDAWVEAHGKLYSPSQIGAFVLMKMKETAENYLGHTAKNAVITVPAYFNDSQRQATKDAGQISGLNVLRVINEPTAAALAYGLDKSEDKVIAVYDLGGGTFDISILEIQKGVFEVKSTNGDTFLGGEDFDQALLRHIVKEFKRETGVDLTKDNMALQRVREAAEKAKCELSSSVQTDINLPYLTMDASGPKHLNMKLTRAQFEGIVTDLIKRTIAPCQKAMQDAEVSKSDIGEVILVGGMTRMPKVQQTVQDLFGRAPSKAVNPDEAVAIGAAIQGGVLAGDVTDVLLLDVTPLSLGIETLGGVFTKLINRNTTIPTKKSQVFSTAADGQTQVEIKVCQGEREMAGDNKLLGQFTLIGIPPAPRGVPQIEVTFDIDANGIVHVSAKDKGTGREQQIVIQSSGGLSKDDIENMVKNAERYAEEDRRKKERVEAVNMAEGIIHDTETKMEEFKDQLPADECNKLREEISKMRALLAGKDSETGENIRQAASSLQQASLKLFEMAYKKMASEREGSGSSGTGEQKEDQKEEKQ
UniProt P11881: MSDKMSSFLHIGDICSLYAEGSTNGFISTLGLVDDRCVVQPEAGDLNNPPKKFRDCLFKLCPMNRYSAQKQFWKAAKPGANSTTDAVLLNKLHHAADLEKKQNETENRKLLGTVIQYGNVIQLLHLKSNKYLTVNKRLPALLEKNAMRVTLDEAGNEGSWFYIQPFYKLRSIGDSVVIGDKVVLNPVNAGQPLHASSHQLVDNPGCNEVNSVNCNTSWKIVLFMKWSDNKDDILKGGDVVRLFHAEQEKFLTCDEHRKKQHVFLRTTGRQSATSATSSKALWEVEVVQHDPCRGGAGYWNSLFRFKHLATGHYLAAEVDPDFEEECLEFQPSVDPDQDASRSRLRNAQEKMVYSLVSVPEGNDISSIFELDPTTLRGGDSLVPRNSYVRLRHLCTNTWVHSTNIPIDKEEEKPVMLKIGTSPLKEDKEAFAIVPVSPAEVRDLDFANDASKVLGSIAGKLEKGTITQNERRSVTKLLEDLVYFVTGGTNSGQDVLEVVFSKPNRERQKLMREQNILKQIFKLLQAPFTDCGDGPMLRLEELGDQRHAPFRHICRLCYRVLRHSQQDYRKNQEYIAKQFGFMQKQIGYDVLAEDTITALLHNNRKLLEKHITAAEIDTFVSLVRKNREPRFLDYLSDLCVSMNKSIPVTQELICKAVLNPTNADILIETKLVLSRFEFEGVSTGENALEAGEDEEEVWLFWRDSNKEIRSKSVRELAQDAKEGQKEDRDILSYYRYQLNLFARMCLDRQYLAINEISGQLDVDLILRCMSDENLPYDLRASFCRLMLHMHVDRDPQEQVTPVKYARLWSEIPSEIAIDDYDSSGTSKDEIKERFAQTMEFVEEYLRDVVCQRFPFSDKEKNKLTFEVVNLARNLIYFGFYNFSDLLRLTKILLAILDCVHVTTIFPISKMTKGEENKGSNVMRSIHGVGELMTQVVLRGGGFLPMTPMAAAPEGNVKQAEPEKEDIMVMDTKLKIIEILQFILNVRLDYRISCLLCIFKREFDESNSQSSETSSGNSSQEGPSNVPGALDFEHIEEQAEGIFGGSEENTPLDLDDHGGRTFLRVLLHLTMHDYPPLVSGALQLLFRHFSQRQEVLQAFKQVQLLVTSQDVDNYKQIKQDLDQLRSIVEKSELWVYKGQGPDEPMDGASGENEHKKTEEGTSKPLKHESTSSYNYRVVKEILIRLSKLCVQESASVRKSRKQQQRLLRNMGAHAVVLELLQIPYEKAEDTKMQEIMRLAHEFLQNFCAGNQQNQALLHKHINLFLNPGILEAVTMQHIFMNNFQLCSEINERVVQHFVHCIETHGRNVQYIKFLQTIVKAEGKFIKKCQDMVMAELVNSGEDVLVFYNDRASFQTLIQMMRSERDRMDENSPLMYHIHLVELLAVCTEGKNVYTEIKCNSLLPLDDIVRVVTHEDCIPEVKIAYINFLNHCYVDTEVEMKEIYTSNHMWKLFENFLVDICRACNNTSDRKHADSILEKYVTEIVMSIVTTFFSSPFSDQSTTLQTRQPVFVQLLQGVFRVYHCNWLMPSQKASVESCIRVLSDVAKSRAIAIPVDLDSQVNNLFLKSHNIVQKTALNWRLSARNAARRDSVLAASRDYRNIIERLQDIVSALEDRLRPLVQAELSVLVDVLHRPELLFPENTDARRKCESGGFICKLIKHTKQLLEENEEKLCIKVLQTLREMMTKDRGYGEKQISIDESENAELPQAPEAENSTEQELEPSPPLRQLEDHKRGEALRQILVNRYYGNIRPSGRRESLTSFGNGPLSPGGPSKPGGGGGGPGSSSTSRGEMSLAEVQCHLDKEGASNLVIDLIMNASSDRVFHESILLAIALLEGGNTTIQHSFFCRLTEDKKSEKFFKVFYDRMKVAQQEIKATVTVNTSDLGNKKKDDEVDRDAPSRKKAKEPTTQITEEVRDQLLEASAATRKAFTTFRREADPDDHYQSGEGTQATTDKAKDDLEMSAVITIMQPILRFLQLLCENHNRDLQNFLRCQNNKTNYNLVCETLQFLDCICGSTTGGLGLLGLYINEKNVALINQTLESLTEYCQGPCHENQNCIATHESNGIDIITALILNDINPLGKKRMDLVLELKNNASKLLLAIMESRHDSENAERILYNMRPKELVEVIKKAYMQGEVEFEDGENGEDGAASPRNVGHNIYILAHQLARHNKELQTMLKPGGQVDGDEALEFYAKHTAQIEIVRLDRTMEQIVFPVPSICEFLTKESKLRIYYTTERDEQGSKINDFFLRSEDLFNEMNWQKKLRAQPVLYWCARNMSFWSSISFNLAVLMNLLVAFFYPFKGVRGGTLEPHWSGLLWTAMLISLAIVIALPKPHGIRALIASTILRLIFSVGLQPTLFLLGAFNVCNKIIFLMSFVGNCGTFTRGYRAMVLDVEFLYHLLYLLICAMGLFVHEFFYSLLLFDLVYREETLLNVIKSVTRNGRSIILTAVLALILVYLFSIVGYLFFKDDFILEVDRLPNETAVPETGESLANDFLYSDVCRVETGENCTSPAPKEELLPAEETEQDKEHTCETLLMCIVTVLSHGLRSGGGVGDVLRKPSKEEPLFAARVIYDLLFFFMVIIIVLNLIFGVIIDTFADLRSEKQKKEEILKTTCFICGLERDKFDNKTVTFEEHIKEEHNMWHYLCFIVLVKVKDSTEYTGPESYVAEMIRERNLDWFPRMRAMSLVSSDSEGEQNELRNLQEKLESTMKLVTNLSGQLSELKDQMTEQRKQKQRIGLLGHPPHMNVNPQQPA

Key:
[1] = target: GRP75-2KQ, expressed in mouse liver (AAV-GRP75-2KQ) (mouse) (UniProt P38647); test: co-IP; livers of mice expressing AAV-GRP75-2KR or 2KQ under NCD; endogenous IP3R1 detected
[2] = target: GRP75-2KR, expressed in mouse liver (AAV-GRP75-2KR) (mouse) (UniProt P38647); test: as above
[3] = target: GRP75, endogenous in mouse liver (mouse (endogenous in liver)) (UniProt P38647); test: native gel or EMSA; Blue-native PAGE 4-13% at 4 °C of primary hepatocytes lysed in 2% digitonin, 50 mM Bis-Tris, 50 mM NaCl, pH 7.4; immunoblotting; hepatocytes of GCN5L1 LKO and control mice and of GRP75-2KR and GRP75-2KQ mice

Measured: binding

IP3R1, endogenous in mouse liver (from UniProt P11881 1-2749) (receptor)
binds: all assays above
